In the supplement of paper PMC12823440, “Inhibitors supercharge kinase turnover through native proteolytic circuits” (Nature, 2025):
Where a name gives a salt, the structure may show the parent alone. This is one part of the list. Hit calls seldom repeat between salt and free forms of one compound.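 Kinases, fused to nanoluciferase, were expressed in K562 cells; luminescence was measured every 4 h from 2 to 18 h as percent of control (DMSO = 100%, positive control = 0%). A time point is decreased if signal falls significantly (2 sigma). Hits were called by the authors by a rule that is not shown; the count of time points alone does not decide it.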

Protein sequences, listed by entry. Tags and fused reporters are not part of them. Lines headed by an entry give the natural chain unless they say otherwise; changes in a name come on top.
UniProt Q15208: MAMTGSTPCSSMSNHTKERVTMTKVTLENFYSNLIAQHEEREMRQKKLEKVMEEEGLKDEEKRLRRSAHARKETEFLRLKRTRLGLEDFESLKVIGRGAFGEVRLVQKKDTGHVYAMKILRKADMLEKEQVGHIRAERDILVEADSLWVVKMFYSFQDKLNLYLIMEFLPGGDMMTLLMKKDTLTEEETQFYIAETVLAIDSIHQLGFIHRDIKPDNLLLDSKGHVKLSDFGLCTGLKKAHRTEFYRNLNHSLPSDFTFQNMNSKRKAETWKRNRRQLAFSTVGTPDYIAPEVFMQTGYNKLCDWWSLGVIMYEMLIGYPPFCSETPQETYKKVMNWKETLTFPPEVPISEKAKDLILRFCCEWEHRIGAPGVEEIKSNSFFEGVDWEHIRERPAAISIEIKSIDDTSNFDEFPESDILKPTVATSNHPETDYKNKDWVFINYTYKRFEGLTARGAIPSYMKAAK
UniProt P42680: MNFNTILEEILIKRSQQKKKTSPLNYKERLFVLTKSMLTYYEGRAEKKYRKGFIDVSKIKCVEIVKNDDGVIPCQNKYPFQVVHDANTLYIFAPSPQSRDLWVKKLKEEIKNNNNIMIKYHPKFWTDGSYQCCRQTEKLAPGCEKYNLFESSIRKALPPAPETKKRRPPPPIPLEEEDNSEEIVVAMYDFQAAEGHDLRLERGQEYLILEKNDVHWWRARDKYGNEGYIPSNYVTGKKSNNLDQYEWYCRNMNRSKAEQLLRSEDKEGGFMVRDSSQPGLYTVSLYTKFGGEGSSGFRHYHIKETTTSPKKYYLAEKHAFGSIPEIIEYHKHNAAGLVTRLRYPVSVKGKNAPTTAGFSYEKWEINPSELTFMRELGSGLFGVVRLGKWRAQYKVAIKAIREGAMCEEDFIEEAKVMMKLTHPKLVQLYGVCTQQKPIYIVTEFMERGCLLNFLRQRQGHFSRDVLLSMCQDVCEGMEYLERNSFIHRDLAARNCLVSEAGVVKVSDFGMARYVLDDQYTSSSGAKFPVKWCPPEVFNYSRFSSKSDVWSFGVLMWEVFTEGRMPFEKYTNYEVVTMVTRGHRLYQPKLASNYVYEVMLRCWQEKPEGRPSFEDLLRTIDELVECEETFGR
UniProt P29597: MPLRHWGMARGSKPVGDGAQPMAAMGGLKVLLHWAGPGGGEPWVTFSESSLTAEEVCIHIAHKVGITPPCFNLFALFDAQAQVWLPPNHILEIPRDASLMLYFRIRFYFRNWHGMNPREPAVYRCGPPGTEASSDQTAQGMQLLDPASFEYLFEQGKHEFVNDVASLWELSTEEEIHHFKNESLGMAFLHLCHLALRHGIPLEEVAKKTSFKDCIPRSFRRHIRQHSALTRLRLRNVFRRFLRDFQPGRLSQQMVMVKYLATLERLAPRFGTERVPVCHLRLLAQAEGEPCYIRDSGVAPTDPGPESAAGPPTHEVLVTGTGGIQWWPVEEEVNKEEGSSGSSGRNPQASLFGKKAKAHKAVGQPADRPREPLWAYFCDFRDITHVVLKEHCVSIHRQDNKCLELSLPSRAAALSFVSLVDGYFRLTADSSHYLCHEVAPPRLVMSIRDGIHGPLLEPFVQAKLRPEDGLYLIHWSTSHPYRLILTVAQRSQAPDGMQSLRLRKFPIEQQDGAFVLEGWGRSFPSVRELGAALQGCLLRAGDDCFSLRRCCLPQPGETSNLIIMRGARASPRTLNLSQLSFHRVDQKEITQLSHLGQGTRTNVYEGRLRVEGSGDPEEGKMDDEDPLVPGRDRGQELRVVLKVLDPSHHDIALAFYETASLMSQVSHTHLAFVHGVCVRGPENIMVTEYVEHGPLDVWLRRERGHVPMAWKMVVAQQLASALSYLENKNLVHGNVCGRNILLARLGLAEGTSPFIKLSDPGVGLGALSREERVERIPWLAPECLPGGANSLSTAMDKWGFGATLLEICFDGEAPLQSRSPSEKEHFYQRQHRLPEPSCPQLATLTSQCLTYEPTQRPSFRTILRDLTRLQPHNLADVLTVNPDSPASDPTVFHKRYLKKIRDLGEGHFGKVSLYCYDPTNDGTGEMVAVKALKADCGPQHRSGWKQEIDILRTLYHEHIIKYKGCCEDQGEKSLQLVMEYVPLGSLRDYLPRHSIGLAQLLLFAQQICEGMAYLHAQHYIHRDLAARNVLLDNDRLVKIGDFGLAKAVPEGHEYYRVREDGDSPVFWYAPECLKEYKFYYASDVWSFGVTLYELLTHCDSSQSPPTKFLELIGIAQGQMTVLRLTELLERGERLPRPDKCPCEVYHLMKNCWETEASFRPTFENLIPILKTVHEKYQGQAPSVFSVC
UniProt Q6PHR2: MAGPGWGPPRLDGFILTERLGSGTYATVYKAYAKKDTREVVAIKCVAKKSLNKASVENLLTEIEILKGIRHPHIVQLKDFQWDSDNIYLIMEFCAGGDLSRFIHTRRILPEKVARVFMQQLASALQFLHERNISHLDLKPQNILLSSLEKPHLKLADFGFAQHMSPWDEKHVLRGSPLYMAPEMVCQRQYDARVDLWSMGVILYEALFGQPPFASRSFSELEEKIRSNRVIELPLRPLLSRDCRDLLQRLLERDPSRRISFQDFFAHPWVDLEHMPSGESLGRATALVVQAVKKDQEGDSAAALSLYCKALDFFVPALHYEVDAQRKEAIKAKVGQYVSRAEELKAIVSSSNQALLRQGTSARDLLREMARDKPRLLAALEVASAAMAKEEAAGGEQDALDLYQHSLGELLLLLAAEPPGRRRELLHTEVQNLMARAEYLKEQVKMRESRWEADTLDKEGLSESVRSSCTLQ
UniProt P07947, whole entry, looked up: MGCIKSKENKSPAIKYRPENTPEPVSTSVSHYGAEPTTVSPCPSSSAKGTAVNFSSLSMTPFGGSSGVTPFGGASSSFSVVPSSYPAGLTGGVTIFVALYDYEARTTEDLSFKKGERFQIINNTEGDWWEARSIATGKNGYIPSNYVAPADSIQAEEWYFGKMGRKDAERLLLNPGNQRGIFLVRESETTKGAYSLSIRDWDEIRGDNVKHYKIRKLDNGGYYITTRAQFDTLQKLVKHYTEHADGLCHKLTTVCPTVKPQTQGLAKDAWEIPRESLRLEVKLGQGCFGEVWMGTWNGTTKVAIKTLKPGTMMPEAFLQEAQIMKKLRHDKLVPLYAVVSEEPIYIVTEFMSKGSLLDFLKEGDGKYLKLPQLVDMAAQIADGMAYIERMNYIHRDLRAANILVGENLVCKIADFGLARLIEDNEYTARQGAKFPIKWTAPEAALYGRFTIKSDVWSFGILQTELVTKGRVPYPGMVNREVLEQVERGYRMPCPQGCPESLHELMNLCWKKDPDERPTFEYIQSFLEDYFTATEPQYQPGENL
UniProt P43403: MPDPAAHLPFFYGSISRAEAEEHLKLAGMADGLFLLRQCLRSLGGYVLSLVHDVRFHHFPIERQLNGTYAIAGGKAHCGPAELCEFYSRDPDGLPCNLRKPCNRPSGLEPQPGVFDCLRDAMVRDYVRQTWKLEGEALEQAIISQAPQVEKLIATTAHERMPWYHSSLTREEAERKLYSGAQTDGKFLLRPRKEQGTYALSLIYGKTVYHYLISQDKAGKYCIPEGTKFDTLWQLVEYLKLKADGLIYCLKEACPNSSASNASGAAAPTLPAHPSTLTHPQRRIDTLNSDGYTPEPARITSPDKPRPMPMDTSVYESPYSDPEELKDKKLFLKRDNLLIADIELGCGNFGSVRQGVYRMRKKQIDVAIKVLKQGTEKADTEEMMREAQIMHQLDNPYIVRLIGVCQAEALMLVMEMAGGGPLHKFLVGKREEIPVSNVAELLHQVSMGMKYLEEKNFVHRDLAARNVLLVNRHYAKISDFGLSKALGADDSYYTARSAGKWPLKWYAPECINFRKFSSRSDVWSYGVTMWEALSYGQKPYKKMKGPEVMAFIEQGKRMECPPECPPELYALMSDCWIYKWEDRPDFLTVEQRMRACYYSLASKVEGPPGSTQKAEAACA
UniProt P00519, whole entry: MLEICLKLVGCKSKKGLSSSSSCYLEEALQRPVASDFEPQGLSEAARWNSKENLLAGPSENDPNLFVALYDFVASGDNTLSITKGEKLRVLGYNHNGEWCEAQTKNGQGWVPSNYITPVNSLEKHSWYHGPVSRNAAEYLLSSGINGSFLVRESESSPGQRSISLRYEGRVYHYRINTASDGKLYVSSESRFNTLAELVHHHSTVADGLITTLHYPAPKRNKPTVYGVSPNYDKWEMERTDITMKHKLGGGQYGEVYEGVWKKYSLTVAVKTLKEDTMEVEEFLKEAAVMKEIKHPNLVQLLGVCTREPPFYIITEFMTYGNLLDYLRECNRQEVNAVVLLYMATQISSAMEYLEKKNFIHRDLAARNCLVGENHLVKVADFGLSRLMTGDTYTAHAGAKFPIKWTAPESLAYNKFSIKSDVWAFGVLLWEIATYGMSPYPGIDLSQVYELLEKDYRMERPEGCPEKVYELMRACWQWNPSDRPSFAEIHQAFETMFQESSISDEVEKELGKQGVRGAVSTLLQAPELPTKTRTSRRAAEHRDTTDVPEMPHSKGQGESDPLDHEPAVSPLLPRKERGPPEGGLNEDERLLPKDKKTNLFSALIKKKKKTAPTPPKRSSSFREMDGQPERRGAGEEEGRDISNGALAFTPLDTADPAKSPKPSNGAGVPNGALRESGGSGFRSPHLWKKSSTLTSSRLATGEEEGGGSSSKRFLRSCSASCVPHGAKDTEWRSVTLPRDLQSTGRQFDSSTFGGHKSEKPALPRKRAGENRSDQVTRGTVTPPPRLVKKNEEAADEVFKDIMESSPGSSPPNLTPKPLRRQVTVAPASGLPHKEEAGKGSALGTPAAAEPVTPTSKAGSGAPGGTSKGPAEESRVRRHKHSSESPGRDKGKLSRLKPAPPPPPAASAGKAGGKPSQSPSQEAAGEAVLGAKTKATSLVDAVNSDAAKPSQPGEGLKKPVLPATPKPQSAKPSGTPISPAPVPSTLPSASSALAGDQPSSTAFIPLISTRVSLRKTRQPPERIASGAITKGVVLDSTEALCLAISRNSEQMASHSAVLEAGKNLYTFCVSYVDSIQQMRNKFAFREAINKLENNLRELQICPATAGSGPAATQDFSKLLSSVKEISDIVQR
UniProt P31749: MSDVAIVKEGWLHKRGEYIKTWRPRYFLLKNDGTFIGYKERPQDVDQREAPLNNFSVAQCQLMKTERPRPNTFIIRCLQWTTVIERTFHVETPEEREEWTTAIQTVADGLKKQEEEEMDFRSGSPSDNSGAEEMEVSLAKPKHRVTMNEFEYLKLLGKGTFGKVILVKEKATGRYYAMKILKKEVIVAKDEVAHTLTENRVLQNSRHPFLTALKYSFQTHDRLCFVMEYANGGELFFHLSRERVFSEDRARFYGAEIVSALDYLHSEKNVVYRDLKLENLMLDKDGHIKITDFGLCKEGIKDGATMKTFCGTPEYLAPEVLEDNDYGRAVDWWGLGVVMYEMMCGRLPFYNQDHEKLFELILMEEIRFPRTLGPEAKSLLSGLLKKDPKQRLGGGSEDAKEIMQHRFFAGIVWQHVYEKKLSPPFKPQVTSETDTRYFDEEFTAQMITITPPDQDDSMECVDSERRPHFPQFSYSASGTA

What was measured:
Conditions in all cases: K562; 2-18 h
[1] = molecular target: STK38 (UniProt Q15208); test: kinase-Nluc reporter destabilization hit call (1 = scored as downregulated) (binary); higher = compound decreases kinase abundance
[2] = molecular target: SYK (UniProt P43405); test: as above
[3] = molecular target: TEC (UniProt P42680); test: as above
[4] = molecular target: TYK2 (UniProt P29597); test: as above
[5] = molecular target: ULK3 (UniProt Q6PHR2); test: as above
[6] = molecular target: YES1 (UniProt P07947); test: as above
[7] = molecular target: ZAK (UniProt Q9NYL2); test: as above
[8] = molecular target: ZAP70 (UniProt P43403); test: as above
[9] = molecular target: ABL1 (UniProt P00519); test: number of time points (of 5) at which kinase-Nluc abundance scored as decreased, DMSO-normalised (count); higher = more persistent destabilization
[10] = molecular target: AKT1 (UniProt P31749); test: as above

Row | SMILES | kinase-Nluc reporter destabilization hit call [1] | kinase-Nluc reporter destabilization hit call [2] | kinase-Nluc reporter destabilization hit call [3] | kinase-Nluc reporter destabilization hit call [4] | kinase-Nluc reporter destabilization hit call [5] | kinase-Nluc reporter destabilization hit call [6] | kinase-Nluc reporter destabilization hit call [7] | kinase-Nluc reporter destabilization hit call [8] | number of time points [9] | number of time points [10]
1 | Cc1cc(Nc2nc(CC3(C(=O)O)CCN(C(=O)c4cccc(Cl)c4Cl)CC3)ccc2F)n[nH]1 (10 µM) | inactive: 0 | inactive: 0 | inactive: 0 | inactive: 0 | inactive: 0 | inactive: 0 | inactive: 0 | inactive: 0 | 3 | 0
2 | O=C(Nc1nc2ccc(NC(=O)C34CC5CC(CC(C5)C3)C4)cc2s1)c1ccccc1 (10 µM) | inactive: 0 | inactive: 0 | inactive: 0 | inactive: 0 | inactive: 0 | inactive: 0 | inactive: 0 | inactive: 0 | 2 | 0
3 | COc1ccc(/C=C/C(=O)C2(C(=O)/C=C/c3ccc(OC)c(OC)c3)CCCCC2)cc1OC (2.5 µM) | inactive: 0 | inactive: 0 | inactive: 0 | inactive: 0 | inactive: 0 | inactive: 0 | inactive: 0 | inactive: 0 | 1 | 0
4 | C[C@H](Nc1ncnc2nc[nH]c12)c1cc2cccc(Cl)c2c(=O)n1-c1ccccc1 [Duvelisib] (10 µM) | inactive: 0 | inactive: 0 | inactive: 0 | inactive: 0 | inactive: 0 | inactive: 0 | inactive: 0 | inactive: 0 | 2 | 0
5 | Nc1n[nH]c2nc(-c3ccc(NS(=O)(=O)c4cc(Cl)ccc4F)cc3)cnc12 (10 µM) | inactive: 0 | inactive: 0 | inactive: 0 | inactive: 0 | inactive: 0 | inactive: 0 | inactive: 0 | inactive: 0 | 0 | 0
6 | Cc1ccn2c(C(=O)C(=O)c3ccccc3)c(-c3ccccc3)nc2c1 (10 µM) | inactive: 0 | inactive: 0 | inactive: 0 | inactive: 0 | inactive: 0 | inactive: 0 | inactive: 0 | inactive: 0 | 0 | 0
7 | Cc1c(-c2ccc(C(N)=O)c3[nH]c4cc(C(C)(C)O)ccc4c23)cccc1-n1cnc2ccccc2c1=O (2.5 µM) | inactive: 0 | inactive: 0 | inactive: 0 | inactive: 0 | inactive: 0 | inactive: 0 | inactive: 0 | inactive: 0 | 0 | 0
8 | Cc1cc(Nc2ncnc3ccc(-c4ccc(CNCCS(C)(=O)=O)o4)cc23)ccc1Oc1ccn2ncnc2c1 [ARRY-380 (analog )] (2.5 µM) | inactive: 0 | inactive: 0 | inactive: 0 | inactive: 0 | inactive: 0 | inactive: 0 | inactive: 0 | inactive: 0 | 0 | 0
9 | COc1cc(N(C)CCN(C)C)c(N)cc1Nc1nccc(-c2cn(C)c3ccccc23)n1 [Mutated EGFR-IN-1] (10 µM) | inactive: 0 | inactive: 0 | inactive: 0 | inactive: 0 | inactive: 0 | inactive: 0 | inactive: 0 | inactive: 0 | 0 | 0
10 | C[C@@H]1CCNC(=O)c2cc3ccc(C(=O)Nc4nc5ccccc5n4CCCN(C)C)cc3n21 (10 µM) | inactive: 0 | inactive: 0 | inactive: 0 | inactive: 0 | inactive: 0 | inactive: 0 | inactive: 0 | inactive: 0 | 0 | 0
11 | O=C(NCc1cccc(O)c1)Nc1nc(-c2ccncc2)cs1 (10 µM) | inactive: 0 | inactive: 0 | inactive: 0 | inactive: 0 | inactive: 0 | inactive: 0 | inactive: 0 | inactive: 0 | 0 | 0
12 | c1ccc(-c2nc3c(c(-n4ccc5cnccc54)n2)CCC3)nc1 (10 µM) | inactive: 0 | inactive: 0 | inactive: 0 | inactive: 0 | inactive: 0 | inactive: 0 | inactive: 0 | inactive: 0 | 0 | 0
13 | Cn1cc2cc(C(F)(F)c3nnc4ccc(-c5cnn(C6CC6)c5)nn34)c(F)cc2n1 [Bozitinib] (10 µM) | inactive: 0 | inactive: 0 | inactive: 0 | inactive: 0 | inactive: 0 | inactive: 0 | inactive: 0 | inactive: 0 | 0 | 0
14 | CN(C)c1nc2c(Br)c(Br)c(Br)c(Br)c2[nH]1 (10 µM) | inactive: 0 | inactive: 0 | inactive: 0 | inactive: 0 | inactive: 0 | inactive: 0 | inactive: 0 | inactive: 0 | 0 | 0
15 | COc1cc2ncnc(-n3nc(-c4ccccn4)nc3N)c2cc1OC (10 µM) | inactive: 0 | inactive: 0 | inactive: 0 | inactive: 0 | inactive: 0 | inactive: 0 | inactive: 0 | inactive: 0 | 0 | 0
16 | COc1ccccc1C(=O)/C=C/c1ccccc1C(=O)O (10 µM) | inactive: 0 | inactive: 0 | inactive: 0 | inactive: 0 | inactive: 0 | inactive: 0 | inactive: 0 | inactive: 0 | 0 | 0
17 | CN(C)CCC=C1c2ccccc2CCc2ccccc21 [Amitriptyline (hydrochloride)] (2.5 µM) | inactive: 0 | inactive: 0 | inactive: 0 | inactive: 0 | inactive: 0 | inactive: 0 | inactive: 0 | inactive: 0 | 0 | 0
18 | Cc1ccc2c(Nc3cccc(Cl)c3F)nccc2c1NC(=O)c1csc2c(N)ncnc12 [Belvarafenib] (10 µM) | inactive: 0 | inactive: 0 | inactive: 0 | inactive: 0 | inactive: 0 | inactive: 0 | inactive: 0 | inactive: 0 | 0 | 0
19 | O=Nc1c2[nH]c3ccccc3nc-2c2ccccc12 [IQ-1S (free acid)] (2.5 µM) | inactive: 0 | inactive: 0 | inactive: 0 | inactive: 0 | inactive: 0 | inactive: 0 | inactive: 0 | inactive: 0 | 0 | 0
20 | COc1ccc2cc(-c3nc(-c4ccc([S+](C)[O-])cc4)[nH]c3-c3ccncc3)ccc2c1 (stereo not given) [Tie2 kinase inhibitor 1] (2.5 µM) | inactive: 0 | inactive: 0 | inactive: 0 | inactive: 0 | inactive: 0 | inactive: 0 | inactive: 0 | inactive: 0 | 0 | 0
21 | O=c1cc(-c2cccc3c2Sc2ccccc2S3)oc(N2CCOCC2)c1 (10 µM) | inactive: 0 | inactive: 0 | inactive: 0 | inactive: 0 | inactive: 0 | inactive: 0 | inactive: 0 | inactive: 0 | 0 | 0
22 | Nc1cccc(-c2cc3c(Oc4cccc(O)c4)ncnc3[nH]2)c1 (10 µM) | inactive: 0 | inactive: 0 | inactive: 0 | inactive: 0 | inactive: 0 | inactive: 0 | inactive: 0 | inactive: 0 | 3 | 0
23 | CC(C)S(=O)(=O)c1ccc2nccc(Nc3ccc4scnc4c3)c2c1 (10 µM) | inactive: 0 | inactive: 0 | inactive: 0 | inactive: 0 | inactive: 0 | inactive: 0 | inactive: 0 | inactive: 0 | 0 | 0
24 | CNC(=O)c1ccccc1Oc1nc(Nc2cc(OC)c(OC)c(OC)c2)ncc1Br (2.5 µM) | inactive: 0 | inactive: 0 | inactive: 0 | inactive: 0 | inactive: 0 | inactive: 0 | inactive: 0 | inactive: 0 | 0 | 0
25 | C[C@@H]1O[C@@H](O[C@@H]2[C@@H](O)[C@H](OCCc3ccc(O)c(O)c3)O[C@H](CO)[C@H]2OC(=O)/C=C/c2ccc(O)c(O)c2)[C@H](O)[C@H](O)[C@H]1O [Verbascoside] (10 µM) | inactive: 0 | inactive: 0 | inactive: 0 | inactive: 0 | inactive: 0 | inactive: 0 | inactive: 0 | inactive: 0 | 0 | 0
26 | C[C@@H]1CC(=O)c2c(ccc3c2C(=O)c2cccc(O)c2C3=O)C1 [Ochromycinone] (10 µM) | inactive: 0 | inactive: 0 | inactive: 0 | inactive: 0 | inactive: 0 | inactive: 0 | inactive: 0 | inactive: 0 | 0 | 0
27 | COc1ccc(-c2c(C)nn3c(NCCN4CCOCC4)cc(C)nc23)cc1OC (10 µM) | inactive: 0 | inactive: 0 | inactive: 0 | inactive: 0 | inactive: 0 | inactive: 0 | inactive: 0 | inactive: 0 | 0 | 0
28 | COc1ccc(-c2coc3cc(O)ccc3c2=O)cc1 [Formononetin] (10 µM) | inactive: 0 | inactive: 0 | inactive: 0 | inactive: 0 | inactive: 0 | inactive: 0 | inactive: 0 | inactive: 0 | 0 | 0
29 | Cc1cnc(-c2ccc(-c3ccc(NC(=O)Nc4cccc(C(F)(F)F)c4)cc3F)c3c2C(=O)NC3)[nH]1 (10 µM) | inactive: 0 | inactive: 0 | inactive: 0 | inactive: 0 | inactive: 0 | inactive: 0 | inactive: 0 | inactive: 0 | 0 | 0
30 | COc1cc2ncnc(Nc3ccc(F)c(Cl)c3)c2cc1NC(=O)/C=C/CN1CCCCC1 [Dacomitinib] (10 µM) | inactive: 0 | inactive: 0 | inactive: 0 | inactive: 0 | inactive: 0 | inactive: 0 | inactive: 0 | inactive: 0 | 0 | 0

Entries of single compounds as entered above. Values in the order: kinase-Nluc reporter destabilization hit call [1]	kinase-Nluc reporter destabilization hit call [2]	kinase-Nluc reporter destabilization hit call [3]	kinase-Nluc reporter destabilization hit call [4]	kinase-Nluc reporter destabilization hit call [5]	kinase-Nluc reporter destabilization hit call [6]	kinase-Nluc reporter destabilization hit call [7]	kinase-Nluc reporter destabilization hit call [8]	number of time points [9]	number of time points [10]
`COc1ccc(/C=C/C(=O)C2(C(=O)/C=C/c3ccc(OC)c(OC)c3)CCCCC2)cc1OC` (2.5 µM) is listed with inactive: 0	inactive: 0	inactive: 0	inactive: 0	inactive: 0	inactive: 0	inactive: 0	inactive: 0	1	0
`C[C@H](Nc1ncnc2nc[nH]c12)c1cc2cccc(Cl)c2c(=O)n1-c1ccccc1` [Duvelisib] (10 µM) is listed with inactive: 0	inactive: 0	inactive: 0	inactive: 0	inactive: 0	inactive: 0	inactive: 0	inactive: 0	2	0
